Reference: paper PMC10863331
Changes are numbered by the printed parent chain. These are yes or no findings as the source states them, for the method shown. Binding seen in cells or lysates may run through a third protein. Some entries that bind do so weakly or less than the wild type. Sequences can lack the tags named with a protein.

By UniProt entry, the sequences of proteins in these tests, tags left out.
UniProt P84025: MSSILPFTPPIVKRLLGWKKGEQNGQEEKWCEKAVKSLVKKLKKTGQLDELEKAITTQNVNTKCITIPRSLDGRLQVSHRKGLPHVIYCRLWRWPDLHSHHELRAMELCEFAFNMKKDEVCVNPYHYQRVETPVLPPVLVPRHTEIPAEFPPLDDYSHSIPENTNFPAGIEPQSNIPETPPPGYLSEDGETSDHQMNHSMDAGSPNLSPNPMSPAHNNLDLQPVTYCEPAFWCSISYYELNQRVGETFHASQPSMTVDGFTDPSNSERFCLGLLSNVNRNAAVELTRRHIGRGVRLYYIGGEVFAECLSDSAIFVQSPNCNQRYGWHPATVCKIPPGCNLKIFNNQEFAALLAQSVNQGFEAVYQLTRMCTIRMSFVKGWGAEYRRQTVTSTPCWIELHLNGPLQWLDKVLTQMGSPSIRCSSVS

What was measured:
Assay in all cases: co-IP; HEK293T cells co-transfected with Flag-Smad3 and HA-ALK7 (wild type or variant) for 2 days; 1 mg whole cell lysate with 1 μg rabbit HA antibody at RT for 2 h, Protein A/G magnetic beads at RT for 1 h, three washes with IP Lysis/Wash buffer; immunoblotting
[1] = molecular target: T1, HA-tagged ALK7 I195T (UniProt Q8NER5)
T1 sequence: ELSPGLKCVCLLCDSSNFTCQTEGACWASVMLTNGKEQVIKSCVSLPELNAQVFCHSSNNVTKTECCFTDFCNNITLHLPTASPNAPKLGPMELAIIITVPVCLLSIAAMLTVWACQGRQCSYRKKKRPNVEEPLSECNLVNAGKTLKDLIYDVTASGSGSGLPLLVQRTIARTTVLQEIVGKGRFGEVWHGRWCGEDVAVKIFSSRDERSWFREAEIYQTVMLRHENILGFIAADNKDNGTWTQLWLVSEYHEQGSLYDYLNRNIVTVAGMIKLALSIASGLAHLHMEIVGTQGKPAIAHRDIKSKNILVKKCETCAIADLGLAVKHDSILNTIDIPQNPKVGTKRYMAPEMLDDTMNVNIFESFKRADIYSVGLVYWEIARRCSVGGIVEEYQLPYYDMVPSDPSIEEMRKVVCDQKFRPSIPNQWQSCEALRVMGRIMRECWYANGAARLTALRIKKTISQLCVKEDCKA

[2] = molecular target: T2, HA-tagged ALK7 I482V (UniProt Q8NER5)
T2 sequence: T1 sequence with T175I, I462V

[3] = molecular target: T3, HA-tagged wild type ALK7 (UniProt Q8NER5)
T3 sequence: T1 sequence with T175I

[4] = molecular target: T4, HA-tagged ALK7 N150H (UniProt Q8NER5)
T4 sequence: T1 sequence with N130H, T175I

Measured: binding

Flag-tagged Smad3 (from UniProt P84025 1-425)
binds: all assays above
